Source: paper doi:10.1101/2021.08.05.455199
Read-outs that look alike come from different tables or passages of the source. These are yes or no findings as the source states them, for the method shown. In cells and extracts the contact can be indirect. Some binding calls cover weakened binding; strength is not graded here. For part of these data: Where a sequence is shown, tags or fusion partners need not be part of it.

Sequences of proteins named here, by UniProt entry; tags and fusion partners are left off. A change or cut given only in a name is not applied to a line headed by its entry.
UniProt Q9C9W9, whole entry: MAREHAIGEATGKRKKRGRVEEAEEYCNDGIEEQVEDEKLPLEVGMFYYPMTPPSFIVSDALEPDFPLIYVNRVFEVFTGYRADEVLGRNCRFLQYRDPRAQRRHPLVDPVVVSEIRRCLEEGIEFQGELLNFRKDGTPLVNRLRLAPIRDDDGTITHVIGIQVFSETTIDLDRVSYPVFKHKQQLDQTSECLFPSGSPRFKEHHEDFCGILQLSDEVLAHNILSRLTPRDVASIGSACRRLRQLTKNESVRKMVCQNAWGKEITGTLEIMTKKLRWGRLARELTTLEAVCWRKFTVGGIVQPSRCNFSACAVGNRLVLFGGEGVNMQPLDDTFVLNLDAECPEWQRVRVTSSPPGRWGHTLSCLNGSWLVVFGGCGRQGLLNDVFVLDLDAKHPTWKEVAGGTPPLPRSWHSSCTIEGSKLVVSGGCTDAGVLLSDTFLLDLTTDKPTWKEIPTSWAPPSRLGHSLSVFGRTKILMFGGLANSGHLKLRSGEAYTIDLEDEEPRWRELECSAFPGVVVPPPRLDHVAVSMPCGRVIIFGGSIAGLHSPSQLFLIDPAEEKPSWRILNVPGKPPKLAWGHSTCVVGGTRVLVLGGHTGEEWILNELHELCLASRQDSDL

Key:
[1] = molecular target: T1, GIGANTEA BiFC fusion (GI-VN) (Arabidopsis thaliana) (UniProt Q9SQI2); assay: split reporter
T1 sequence: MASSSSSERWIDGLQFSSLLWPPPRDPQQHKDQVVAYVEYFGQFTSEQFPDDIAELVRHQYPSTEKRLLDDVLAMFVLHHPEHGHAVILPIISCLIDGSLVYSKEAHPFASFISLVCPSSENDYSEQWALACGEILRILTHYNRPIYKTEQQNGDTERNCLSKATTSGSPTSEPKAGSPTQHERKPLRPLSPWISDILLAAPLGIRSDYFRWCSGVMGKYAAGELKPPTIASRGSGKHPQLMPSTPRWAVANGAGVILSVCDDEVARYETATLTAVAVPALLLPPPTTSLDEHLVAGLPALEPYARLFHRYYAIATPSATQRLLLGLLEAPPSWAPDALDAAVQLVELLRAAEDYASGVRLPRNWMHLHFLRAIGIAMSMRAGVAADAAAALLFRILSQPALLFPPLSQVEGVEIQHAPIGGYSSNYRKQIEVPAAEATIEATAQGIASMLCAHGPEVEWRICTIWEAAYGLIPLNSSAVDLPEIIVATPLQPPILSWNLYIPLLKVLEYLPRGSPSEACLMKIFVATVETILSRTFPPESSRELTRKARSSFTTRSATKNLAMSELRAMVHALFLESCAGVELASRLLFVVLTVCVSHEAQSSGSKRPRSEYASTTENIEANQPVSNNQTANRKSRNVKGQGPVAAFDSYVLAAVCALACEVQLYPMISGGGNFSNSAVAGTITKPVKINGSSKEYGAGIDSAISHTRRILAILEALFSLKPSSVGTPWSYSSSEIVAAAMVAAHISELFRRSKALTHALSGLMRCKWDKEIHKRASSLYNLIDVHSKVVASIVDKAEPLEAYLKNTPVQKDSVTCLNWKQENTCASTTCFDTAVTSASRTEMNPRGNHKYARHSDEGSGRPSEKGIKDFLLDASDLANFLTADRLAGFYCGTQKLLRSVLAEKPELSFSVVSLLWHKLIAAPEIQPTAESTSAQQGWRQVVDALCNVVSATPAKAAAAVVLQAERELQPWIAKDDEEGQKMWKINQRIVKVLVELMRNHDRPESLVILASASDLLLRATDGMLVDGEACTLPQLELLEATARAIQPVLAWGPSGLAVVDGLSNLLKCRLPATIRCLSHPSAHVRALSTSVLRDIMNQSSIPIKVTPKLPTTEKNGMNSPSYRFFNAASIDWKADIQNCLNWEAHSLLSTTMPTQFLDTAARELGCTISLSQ

[2] = molecular target: T2, SOS2/CIPK24 protein kinase, BiFC fusion (Arabidopsis thaliana) (UniProt Q9LDI3); assay: split reporter
T2 sequence: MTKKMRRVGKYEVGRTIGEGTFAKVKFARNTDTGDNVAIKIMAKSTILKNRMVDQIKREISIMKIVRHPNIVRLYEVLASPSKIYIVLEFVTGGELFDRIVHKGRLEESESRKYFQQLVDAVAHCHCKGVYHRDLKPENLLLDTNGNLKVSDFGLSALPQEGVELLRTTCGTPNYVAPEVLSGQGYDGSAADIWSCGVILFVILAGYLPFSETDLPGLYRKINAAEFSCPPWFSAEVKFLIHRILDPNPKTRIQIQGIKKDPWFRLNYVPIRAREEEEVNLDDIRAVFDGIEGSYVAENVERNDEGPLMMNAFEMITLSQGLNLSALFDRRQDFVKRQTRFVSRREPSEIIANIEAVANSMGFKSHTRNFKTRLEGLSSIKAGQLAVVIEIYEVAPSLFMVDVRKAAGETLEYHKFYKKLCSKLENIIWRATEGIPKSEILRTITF

[3] = molecular target: SOS3/CBL4 tagged with FLAG (SOS3-FLAG) (Arabidopsis thaliana) (UniProt O81223); assay: co-IP
[4] = molecular target: T3, GIGANTEA tagged with HA (GI-HA) (Arabidopsis thaliana) (UniProt Q9SQI2); assay: co-IP
T3 sequence: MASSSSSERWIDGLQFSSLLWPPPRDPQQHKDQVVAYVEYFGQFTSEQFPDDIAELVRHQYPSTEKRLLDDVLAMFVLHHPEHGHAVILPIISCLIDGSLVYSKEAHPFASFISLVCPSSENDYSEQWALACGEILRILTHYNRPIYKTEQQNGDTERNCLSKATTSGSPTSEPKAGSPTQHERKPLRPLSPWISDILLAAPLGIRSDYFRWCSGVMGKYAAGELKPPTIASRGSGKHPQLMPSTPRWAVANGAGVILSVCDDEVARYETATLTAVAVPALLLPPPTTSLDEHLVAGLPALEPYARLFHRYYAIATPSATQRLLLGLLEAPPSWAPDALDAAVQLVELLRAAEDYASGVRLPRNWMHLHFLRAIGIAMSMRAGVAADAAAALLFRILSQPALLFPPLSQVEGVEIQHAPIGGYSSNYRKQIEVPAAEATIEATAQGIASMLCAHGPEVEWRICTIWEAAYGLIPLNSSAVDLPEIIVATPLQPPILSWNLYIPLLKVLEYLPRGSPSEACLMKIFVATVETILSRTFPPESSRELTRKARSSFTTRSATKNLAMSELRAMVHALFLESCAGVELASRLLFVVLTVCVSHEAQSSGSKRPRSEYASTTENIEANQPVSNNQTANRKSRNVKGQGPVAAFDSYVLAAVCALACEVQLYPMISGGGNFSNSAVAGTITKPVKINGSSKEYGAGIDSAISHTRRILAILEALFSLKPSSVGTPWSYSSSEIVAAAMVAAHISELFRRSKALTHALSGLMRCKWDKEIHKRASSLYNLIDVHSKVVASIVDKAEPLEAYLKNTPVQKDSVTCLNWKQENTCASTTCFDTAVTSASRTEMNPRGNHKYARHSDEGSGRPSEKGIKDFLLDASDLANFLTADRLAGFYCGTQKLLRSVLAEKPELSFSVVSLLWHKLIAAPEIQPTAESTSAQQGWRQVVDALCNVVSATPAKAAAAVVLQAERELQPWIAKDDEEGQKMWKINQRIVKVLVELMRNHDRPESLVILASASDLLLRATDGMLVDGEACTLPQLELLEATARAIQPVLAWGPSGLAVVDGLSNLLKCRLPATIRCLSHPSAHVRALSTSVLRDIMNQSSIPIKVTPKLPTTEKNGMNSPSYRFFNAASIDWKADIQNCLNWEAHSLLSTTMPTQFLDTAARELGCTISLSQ

[5] = molecular target: SOS3-G2A fused to GFP (SOS3-G2A-GFP) (Arabidopsis thaliana) (UniProt O81223); assay: co-IP
[6] = molecular target: SOS3/CBL4 tagged with FLAG (SOS3-FLAG) (Arabidopsis thaliana) (UniProt O81223); assay: co-IP; remark: listed apart in the source
[7] = molecular target: SOS3-C3A fused to GFP (SOS3-C3A-GFP) (Arabidopsis thaliana) (UniProt O81223); assay: co-IP
[8] = molecular target: SOS3/CBL4 fused to GFP (SOS3-GFP) (Arabidopsis thaliana) (UniProt O81223); assay: co-IP

SOS3-C3A, BiFC fusion (from UniProt O81223 1-222)
binding [1]: binds | binding [2]: binds

FKF1 (FLAVIN-BINDING, KELCH REPEAT, F-BOX 1) tagged with MYC (FKF1-MYC) (from UniProt Q9C9W9 1-619)
binding [3]: binds

SOS3/CBL4 tagged with MYC (SOS3-MYC) (from UniProt O81223 1-222)
binding [4]: binds

SOS3/CBL4 BiFC fusion (SOS3-VC) (from UniProt O81223 1-222)
binding [1]: binds

B1: GIGANTEA tagged with HA (GI-HA) (protein, UniProt Q9SQI2 1-1173)
chain: MASSSSSERWIDGLQFSSLLWPPPRDPQQHKDQVVAYVEYFGQFTSEQFPDDIAELVRHQYPSTEKRLLDDVLAMFVLHHPEHGHAVILPIISCLIDGSLVYSKEAHPFASFISLVCPSSENDYSEQWALACGEILRILTHYNRPIYKTEQQNGDTERNCLSKATTSGSPTSEPKAGSPTQHERKPLRPLSPWISDILLAAPLGIRSDYFRWCSGVMGKYAAGELKPPTIASRGSGKHPQLMPSTPRWAVANGAGVILSVCDDEVARYETATLTAVAVPALLLPPPTTSLDEHLVAGLPALEPYARLFHRYYAIATPSATQRLLLGLLEAPPSWAPDALDAAVQLVELLRAAEDYASGVRLPRNWMHLHFLRAIGIAMSMRAGVAADAAAALLFRILSQPALLFPPLSQVEGVEIQHAPIGGYSSNYRKQIEVPAAEATIEATAQGIASMLCAHGPEVEWRICTIWEAAYGLIPLNSSAVDLPEIIVATPLQPPILSWNLYIPLLKVLEYLPRGSPSEACLMKIFVATVETILSRTFPPESSRELTRKARSSFTTRSATKNLAMSELRAMVHALFLESCAGVELASRLLFVVLTVCVSHEAQSSGSKRPRSEYASTTENIEANQPVSNNQTANRKSRNVKGQGPVAAFDSYVLAAVCALACEVQLYPMISGGGNFSNSAVAGTITKPVKINGSSKEYGAGIDSAISHTRRILAILEALFSLKPSSVGTPWSYSSSEIVAAAMVAAHISELFRRSKALTHALSGLMRCKWDKEIHKRASSLYNLIDVHSKVVASIVDKAEPLEAYLKNTPVQKDSVTCLNWKQENTCASTTCFDTAVTSASRTEMNPRGNHKYARHSDEGSGRPSEKGIKDFLLDASDLANFLTADRLAGFYCGTQKLLRSVLAEKPELSFSVVSLLWHKLIAAPEIQPTAESTSAQQGWRQVVDALCNVVSATPAKAAAAVVLQAERELQPWIAKDDEEGQKMWKINQRIVKVLVELMRNHDRPESLVILASASDLLLRATDGMLVDGEACTLPQLELLEATARAIQPVLAWGPSGLAVVDGLSNLLKCRLPATIRCLSHPSAHVRALSTSVLRDIMNQSSIPIKVTPKLPTTEKNGMNSPSYRFFNAASIDWKADIQNCLNWEAHSLLSTTMPTQFLDTAARELGCTISLSQ
binding [5]: binds | binding [6]: binds | binding [7]: binds | binding [8]: binds
